Test results reported in PubChem BioAssay AID1347426 (Functional Genomics Laboratory (NCATS/FGL), 2020).
Screen size: about 31,000 sequences; about 1,400 (4.5%) were called active.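 How the source made its calls: active means median seed-adjusted z-score above 1 or below -1; inactive means the rest.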 This is one part of the list.

assay: Novel Modifiers of Survival Motor Neuron (SMN) Protein: Gene Identification via Genome-wide siRNA Screen; conditions: HEK293T SMN2-luciferase reporter, siRNA knockdown, 72 h; actives lie on both sides;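 further: luminescence tracks full-length SMN protein made from the SMN2 reporter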
In short: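 Luciferase signal, proportional to full-length SMN made from an SMN2 cDNA reporter in stable HEK293T cells, was read 72 h after siRNA reverse transfection. Values were expressed as MAD scores after non-targeting-control normalization and log10 conversion; seed analysis flagged off-targets.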

With AGAGUUUGGACAAAAAGAATT against SLC25A25 as the sequence, how does the median seed-adjusted z-score read?
The median seed-adjusted z-score was inactive: -0.668.

Which median seed-adjusted z-score does the source give for AGACCAACCUCACAUAUGATT against TRIM62 here?
The median seed-adjusted z-score was inactive: -0.000231.

With GGAGAUCUGAAAUCAGGGATT against TP53BP1 as the sequence, how does the median seed-adjusted z-score read?
Its median seed-adjusted z-score is inactive: -0.166.

Which median seed-adjusted z-score does the source give for GGACCCAAAUUCAGAAGAATT against ANKRA2 here?
Its median seed-adjusted z-score is active: 1.26.

Which median seed-adjusted z-score does the source give for AAUAUUUGCUGUUCGUCAATT against MOCS2 here?
The median seed-adjusted z-score was inactive: 0.0327.

Which median seed-adjusted z-score does the source give for UCAAGCAUGUGGUCCUGUATT against AIP here?
The median seed-adjusted z-score was inactive: 0.529.

Which median seed-adjusted z-score does the source give for CCUCAGUGGUGGUAGAUGUTT against APEH here?
Its median seed-adjusted z-score is inactive: -0.0726.

Which median seed-adjusted z-score does the source give for CGAUGUUGGUUAUGAGAGATT against ACTR3 here?
Its median seed-adjusted z-score is inactive: -0.7.

Which median seed-adjusted z-score does the source give for CGAUACACCCUGGAAAUUATT against ALOX15 here?
The median seed-adjusted z-score was inactive: 0.0369.

For CCGUAGGAGAUGUUCGUCATT against NEK1, which median seed-adjusted z-score is on record?
The median seed-adjusted z-score was inactive: 0.296.

For GGAGAAGCUUAUUUUCUCATT against GDPD5, which median seed-adjusted z-score is on record?
The median seed-adjusted z-score was inactive: -0.0618.

For GGCUGGUUCCUUUAGUGAATT against MTHFD1L, which median seed-adjusted z-score is on record?
Its median seed-adjusted z-score is inactive: -0.0577.

For GGUAUGCGACGGGAAAGUATT against FASN, which median seed-adjusted z-score is on record?
The median seed-adjusted z-score was inactive: 0.282.

For UGCCGUUAAUUAAGGAAAATT against DTYMK, which median seed-adjusted z-score is on record?
The median seed-adjusted z-score was inactive: -0.191.

For AGACCCUGGUAGUAGCUGATT against ADAMTS7, which median seed-adjusted z-score is on record?
Its median seed-adjusted z-score is inactive: 0.146.

Which median seed-adjusted z-score does the source give for CAGCAUACUUUAUCGCCUUTT against DICER1 here?
The median seed-adjusted z-score was inactive: 0.101.

With CCCUUUAGCUAACUAAUAATT against PTPN20A as the sequence, how does the median seed-adjusted z-score read?
Its median seed-adjusted z-score is inactive: 0.

For GGCCUUCAUUCUUUUCGUATT against ZNF587, which median seed-adjusted z-score is on record?
Its median seed-adjusted z-score is inactive: -0.178.

For GAAUCUGUCAGGAAUGACATT against RARB, which median seed-adjusted z-score is on record?
The median seed-adjusted z-score was inactive: 0.409.

Which median seed-adjusted z-score does the source give for GGUCAUGGAUGUGCACGAUTT against KRT14 here?
The median seed-adjusted z-score was inactive: -0.127.

With GGAUAUGCUUUCAAUGGGATT against TSHR as the sequence, how does the median seed-adjusted z-score read?
The median seed-adjusted z-score was inactive: 0.851.

For GGAAAUUGCUAGAGUAGAATT against NDC80, which median seed-adjusted z-score is on record?
The median seed-adjusted z-score was inactive: 0.0855.

For AAAUAGUGAUAGAUCCAUUTT against HPRT1, which median seed-adjusted z-score is on record?
Its median seed-adjusted z-score is inactive: -0.0463.

With AGAUCAUGACUUGUGCUGATT against SEZ6L2 as the sequence, how does the median seed-adjusted z-score read?
The median seed-adjusted z-score was inactive: -0.331.

Which median seed-adjusted z-score does the source give for GGUUAUAGAGUCUAUCAUUTT against CDS1 here?
The median seed-adjusted z-score was inactive: 0.0208.

With GGCAGACAGAAUUCGCAUATT against GUCY2F as the sequence, how does the median seed-adjusted z-score read?
Its median seed-adjusted z-score is inactive: 0.188.

With GGAUCUAAACAGGAAGGAATT against NES as the sequence, how does the median seed-adjusted z-score read?
Its median seed-adjusted z-score is inactive: 0.613.

Which median seed-adjusted z-score does the source give for GAUUCAACUUAUCAGUAUATT against INPP1 here?
Its median seed-adjusted z-score is inactive: -0.047.

With GCUAAGGUGUGGAUGGACATT against SEMA5B as the sequence, how does the median seed-adjusted z-score read?
Its median seed-adjusted z-score is inactive: 0.641.

Which median seed-adjusted z-score does the source give for GCGGAUUGUUCGGAACAAATT against PLCL1 here?
The median seed-adjusted z-score was inactive: 0.000254.

For CCGCUAGAAUUACAAUACATT against MSH3, which median seed-adjusted z-score is on record?
Its median seed-adjusted z-score is inactive: 0.428.

For CGUUUACCAUGCUAUCUAUTT against TFCP2, which median seed-adjusted z-score is on record?
The median seed-adjusted z-score was inactive: 0.14.

For GGACCUACAAGAUCAACUATT against TRAF3IP3, which median seed-adjusted z-score is on record?
Its median seed-adjusted z-score is inactive: 0.0238.

With AAGAGUUCAUAGACAGUGATT against SCGB2A1 as the sequence, how does the median seed-adjusted z-score read?
Its median seed-adjusted z-score is inactive: 0.

Which median seed-adjusted z-score does the source give for GAGCCGAAGUUGUACAGAATT against PPARGC1B here?
The median seed-adjusted z-score was inactive: -0.366.

Which median seed-adjusted z-score does the source give for CACCGGAGCUUUCAAAGAATT against LTA here?
The median seed-adjusted z-score was inactive: 0.273.

For UCAUCAUCGUAUCAAUUGUTT against VAMP7, which median seed-adjusted z-score is on record?
The median seed-adjusted z-score was inactive: -0.00527.

With GCAUCUAAUUUGUAUGAAUTT against DCK as the sequence, how does the median seed-adjusted z-score read?
Its median seed-adjusted z-score is inactive: 0.123.

For CAGUCGAGUUGGAACGAUATT against CMYA5, which median seed-adjusted z-score is on record?
The median seed-adjusted z-score was inactive: -0.858.

With UCAGUAUCUUGGUCCUGUATT against CALCB as the sequence, how does the median seed-adjusted z-score read?
The median seed-adjusted z-score was inactive: 0.

For UGUCCUUCGUUUAUCCCAATT against B4GALNT4, which median seed-adjusted z-score is on record?
Its median seed-adjusted z-score is inactive: -0.567.

For GCCGGCUGAUGAUCCCUAATT against UNC5A, which median seed-adjusted z-score is on record?
The median seed-adjusted z-score was inactive: 0.517.

Which median seed-adjusted z-score does the source give for CCAUGUUCCUUACACCUCUTT against GPR15 here?
Its median seed-adjusted z-score is inactive: 0.101.

Which median seed-adjusted z-score does the source give for GAACCAGAUGAGACAUUCATT against SPSB1 here?
Its median seed-adjusted z-score is inactive: -0.378.

Which median seed-adjusted z-score does the source give for GGAGAUGCCUGGUUGAUGATT against IL10RA here?
Its median seed-adjusted z-score is inactive: 0.156.

Which median seed-adjusted z-score does the source give for GGAAAGCAGGGAUACCAGUTT against PRKCE here?
The median seed-adjusted z-score was inactive: 0.568.

With GGAACCCAGAGGAAUGUGATT against HTR3E as the sequence, how does the median seed-adjusted z-score read?
Its median seed-adjusted z-score is inactive: -0.717.

With AGAAGACUAUCGGACCCAATT against DLGAP2 as the sequence, how does the median seed-adjusted z-score read?
The median seed-adjusted z-score was inactive: 0.295.

For GCAGGACAAACAACGAGUATT against ACADSB, which median seed-adjusted z-score is on record?
The median seed-adjusted z-score was inactive: -0.436.

With GUAGACAACGGAAAUAUUUTT against RFESD as the sequence, how does the median seed-adjusted z-score read?
The median seed-adjusted z-score was inactive: -0.503.

For GGGCUGAGUUAAAGGAGAATT against PTGDS, which median seed-adjusted z-score is on record?
Its median seed-adjusted z-score is inactive: 0.48.

With CGAGUACGGCCCAGACUUATT against LTBP4 as the sequence, how does the median seed-adjusted z-score read?
Its median seed-adjusted z-score is inactive: 0.19.

With GGUUAUUGAGAAUACUGGATT against DDR2 as the sequence, how does the median seed-adjusted z-score read?
Its median seed-adjusted z-score is inactive: 0.252.
